Some of the results follow.
Tests used:
Test in all cases: log2 fold change, soluble protein after heating vs DMSO (PISA); higher = thermal stabilisation; K562 lysate, 10 uM; active = over 0.2 and 3.5 SD of the protein, either way, in both replicates (recomputed)
encorafenib = compound: COC(=O)N[C@@H](C)CNc1nccc(-c2cn(C(C)C)nc2-c2cc(Cl)cc(NS(C)(=O)=O)c2F)n1 [encorafenib]
Method in brief: (§1)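 K562 pellets were dounce-homogenised in PBS pH 7.4 containing 1 mM MgCl2, and the crude extract, at 1 mg/mL protein, was exposed to 10 μM compound for 30 min. Aliquots were heated for 3 min across 48°C-58°C, pooled, brought to 0.5% NP-40 at 4°C and spun at 21,000xg for 90 min, with the supernatant taken as soluble protein. TMTpro 16plex LC-MS/MS with equalised channel sums quantified that protein. Values are log-two fold changes in thermal stability relative to solvent controls, taken from duplicates.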

Sequences of proteins named here, by UniProt entry; tags and fusion partners are left off. A change or cut given only in a name is not applied to a line headed by its entry.
UniProt Q9HAW0, whole entry, looked up: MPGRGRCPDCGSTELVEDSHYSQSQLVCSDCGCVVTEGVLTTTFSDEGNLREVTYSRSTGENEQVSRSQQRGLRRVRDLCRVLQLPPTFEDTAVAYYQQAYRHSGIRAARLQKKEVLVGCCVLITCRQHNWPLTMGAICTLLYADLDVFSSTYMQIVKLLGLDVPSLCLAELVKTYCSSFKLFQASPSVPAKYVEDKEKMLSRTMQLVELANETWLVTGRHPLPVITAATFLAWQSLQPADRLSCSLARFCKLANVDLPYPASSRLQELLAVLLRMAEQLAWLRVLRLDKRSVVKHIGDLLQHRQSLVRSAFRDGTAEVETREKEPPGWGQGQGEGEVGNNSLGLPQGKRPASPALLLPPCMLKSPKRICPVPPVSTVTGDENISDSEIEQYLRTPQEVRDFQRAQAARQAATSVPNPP
UniProt O60238, whole entry, looked up: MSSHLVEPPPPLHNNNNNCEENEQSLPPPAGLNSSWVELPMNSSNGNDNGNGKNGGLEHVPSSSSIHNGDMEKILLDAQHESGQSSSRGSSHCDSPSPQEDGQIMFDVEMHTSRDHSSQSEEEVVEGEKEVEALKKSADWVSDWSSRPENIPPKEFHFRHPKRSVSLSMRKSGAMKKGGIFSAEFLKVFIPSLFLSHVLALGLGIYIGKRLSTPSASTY
UniProt P13497: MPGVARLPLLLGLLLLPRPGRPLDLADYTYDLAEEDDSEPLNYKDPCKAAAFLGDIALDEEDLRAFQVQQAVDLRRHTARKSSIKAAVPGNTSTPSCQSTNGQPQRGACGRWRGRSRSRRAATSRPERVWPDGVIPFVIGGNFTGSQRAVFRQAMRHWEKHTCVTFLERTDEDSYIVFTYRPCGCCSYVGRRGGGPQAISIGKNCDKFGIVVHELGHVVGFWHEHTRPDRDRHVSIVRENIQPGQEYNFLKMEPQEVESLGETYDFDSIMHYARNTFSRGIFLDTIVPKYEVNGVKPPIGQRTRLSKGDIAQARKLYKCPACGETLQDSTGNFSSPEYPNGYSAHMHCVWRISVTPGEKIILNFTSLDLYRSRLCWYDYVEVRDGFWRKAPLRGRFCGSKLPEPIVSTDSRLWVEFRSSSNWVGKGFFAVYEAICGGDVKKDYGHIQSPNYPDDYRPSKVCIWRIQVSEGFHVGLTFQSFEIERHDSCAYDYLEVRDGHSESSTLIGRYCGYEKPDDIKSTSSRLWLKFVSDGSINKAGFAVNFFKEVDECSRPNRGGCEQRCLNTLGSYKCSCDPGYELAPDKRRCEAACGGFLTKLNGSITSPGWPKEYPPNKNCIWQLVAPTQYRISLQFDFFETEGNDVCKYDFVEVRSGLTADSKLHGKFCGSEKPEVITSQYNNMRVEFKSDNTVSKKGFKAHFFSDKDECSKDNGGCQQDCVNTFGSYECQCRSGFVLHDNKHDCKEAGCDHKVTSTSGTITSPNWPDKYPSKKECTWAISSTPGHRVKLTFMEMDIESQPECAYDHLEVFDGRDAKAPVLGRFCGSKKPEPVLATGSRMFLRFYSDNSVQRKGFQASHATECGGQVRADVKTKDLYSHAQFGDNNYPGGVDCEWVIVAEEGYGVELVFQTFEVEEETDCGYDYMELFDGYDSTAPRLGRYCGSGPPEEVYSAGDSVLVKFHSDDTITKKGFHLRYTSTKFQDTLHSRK
UniProt F5GXF5: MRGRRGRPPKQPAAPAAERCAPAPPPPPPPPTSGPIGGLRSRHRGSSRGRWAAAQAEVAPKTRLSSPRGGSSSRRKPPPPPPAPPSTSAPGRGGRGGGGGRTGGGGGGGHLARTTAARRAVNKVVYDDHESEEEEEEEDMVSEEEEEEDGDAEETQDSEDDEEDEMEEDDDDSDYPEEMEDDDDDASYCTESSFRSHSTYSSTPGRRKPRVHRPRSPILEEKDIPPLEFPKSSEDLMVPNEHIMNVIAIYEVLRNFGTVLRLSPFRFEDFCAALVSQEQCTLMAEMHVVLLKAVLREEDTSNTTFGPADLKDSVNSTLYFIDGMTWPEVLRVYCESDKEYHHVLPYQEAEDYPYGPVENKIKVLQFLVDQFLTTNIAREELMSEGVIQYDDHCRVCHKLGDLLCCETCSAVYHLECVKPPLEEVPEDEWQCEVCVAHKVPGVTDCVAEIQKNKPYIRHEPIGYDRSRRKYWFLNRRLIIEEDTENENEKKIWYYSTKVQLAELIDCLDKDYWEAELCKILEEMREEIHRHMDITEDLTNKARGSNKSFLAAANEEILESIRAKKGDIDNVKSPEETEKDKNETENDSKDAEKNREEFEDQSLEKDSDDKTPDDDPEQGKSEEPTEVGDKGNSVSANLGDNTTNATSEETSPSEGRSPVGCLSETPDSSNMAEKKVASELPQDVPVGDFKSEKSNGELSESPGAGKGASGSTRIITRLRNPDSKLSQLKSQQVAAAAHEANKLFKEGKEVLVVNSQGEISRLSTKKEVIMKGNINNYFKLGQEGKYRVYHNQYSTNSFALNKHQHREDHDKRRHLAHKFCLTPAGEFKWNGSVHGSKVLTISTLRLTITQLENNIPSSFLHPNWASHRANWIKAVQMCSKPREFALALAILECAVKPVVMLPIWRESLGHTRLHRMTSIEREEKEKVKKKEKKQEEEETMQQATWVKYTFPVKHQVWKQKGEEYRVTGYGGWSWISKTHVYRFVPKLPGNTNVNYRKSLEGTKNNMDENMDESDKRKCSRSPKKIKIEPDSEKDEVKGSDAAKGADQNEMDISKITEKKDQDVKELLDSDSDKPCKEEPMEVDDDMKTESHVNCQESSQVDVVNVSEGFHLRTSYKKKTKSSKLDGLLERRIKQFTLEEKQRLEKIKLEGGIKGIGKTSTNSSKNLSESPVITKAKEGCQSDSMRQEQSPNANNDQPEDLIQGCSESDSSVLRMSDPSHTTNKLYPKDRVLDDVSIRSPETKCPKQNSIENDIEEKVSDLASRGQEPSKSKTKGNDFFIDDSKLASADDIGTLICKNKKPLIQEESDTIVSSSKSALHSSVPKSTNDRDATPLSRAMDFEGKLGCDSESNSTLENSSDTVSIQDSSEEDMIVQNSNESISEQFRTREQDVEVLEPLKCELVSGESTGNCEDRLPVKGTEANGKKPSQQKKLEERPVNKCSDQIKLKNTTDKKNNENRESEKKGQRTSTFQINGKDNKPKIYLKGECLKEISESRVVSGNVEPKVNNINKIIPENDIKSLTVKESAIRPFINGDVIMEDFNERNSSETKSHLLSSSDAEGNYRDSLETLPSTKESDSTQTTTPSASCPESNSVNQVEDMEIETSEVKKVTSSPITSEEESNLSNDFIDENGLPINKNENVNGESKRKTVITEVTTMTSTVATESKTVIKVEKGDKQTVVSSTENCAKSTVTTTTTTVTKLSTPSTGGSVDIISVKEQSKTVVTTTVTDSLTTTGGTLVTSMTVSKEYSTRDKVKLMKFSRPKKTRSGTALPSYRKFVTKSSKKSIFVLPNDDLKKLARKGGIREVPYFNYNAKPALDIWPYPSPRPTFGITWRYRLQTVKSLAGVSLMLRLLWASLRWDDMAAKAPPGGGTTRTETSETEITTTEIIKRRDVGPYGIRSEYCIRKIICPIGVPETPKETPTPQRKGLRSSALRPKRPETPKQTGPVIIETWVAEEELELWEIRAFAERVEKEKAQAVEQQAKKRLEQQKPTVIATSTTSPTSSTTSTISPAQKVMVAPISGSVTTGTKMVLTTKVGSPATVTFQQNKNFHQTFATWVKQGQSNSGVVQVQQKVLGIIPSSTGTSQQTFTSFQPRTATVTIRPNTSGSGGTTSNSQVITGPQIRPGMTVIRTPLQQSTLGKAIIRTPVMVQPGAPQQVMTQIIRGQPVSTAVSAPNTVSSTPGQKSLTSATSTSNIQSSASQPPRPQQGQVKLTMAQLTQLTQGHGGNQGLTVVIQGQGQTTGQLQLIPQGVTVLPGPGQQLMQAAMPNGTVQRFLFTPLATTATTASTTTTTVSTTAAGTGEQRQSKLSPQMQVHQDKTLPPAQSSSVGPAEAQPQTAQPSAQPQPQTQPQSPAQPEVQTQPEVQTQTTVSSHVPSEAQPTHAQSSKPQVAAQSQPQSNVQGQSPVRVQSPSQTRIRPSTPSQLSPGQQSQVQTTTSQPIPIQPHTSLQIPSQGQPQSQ
UniProt P10415, whole entry, looked up: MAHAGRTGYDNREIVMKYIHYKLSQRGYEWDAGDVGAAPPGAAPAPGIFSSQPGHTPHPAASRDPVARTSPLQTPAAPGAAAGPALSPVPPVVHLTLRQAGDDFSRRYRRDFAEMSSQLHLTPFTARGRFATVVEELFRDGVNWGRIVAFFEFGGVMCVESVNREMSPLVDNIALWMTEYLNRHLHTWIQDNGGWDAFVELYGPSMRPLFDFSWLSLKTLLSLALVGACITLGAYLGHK
UniProt Q96DR5: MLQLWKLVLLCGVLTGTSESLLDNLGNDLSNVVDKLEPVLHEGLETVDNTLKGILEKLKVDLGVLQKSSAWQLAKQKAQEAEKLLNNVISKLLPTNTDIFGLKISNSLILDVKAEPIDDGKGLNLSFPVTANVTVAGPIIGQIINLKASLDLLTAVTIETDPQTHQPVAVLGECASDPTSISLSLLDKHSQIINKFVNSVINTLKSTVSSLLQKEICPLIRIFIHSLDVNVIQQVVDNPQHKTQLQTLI
UniProt Q9BXY8: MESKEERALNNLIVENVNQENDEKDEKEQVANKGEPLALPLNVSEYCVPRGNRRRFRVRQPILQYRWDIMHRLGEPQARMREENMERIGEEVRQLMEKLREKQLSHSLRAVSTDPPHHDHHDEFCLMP
UniProt Q9BUT1: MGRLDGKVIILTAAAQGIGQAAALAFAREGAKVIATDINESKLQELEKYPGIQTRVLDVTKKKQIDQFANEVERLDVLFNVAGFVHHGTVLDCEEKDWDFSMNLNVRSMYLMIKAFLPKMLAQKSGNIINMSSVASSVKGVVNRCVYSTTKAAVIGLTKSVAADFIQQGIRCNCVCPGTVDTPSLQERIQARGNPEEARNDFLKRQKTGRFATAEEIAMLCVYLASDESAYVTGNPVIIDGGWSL
UniProt Q1RMZ1: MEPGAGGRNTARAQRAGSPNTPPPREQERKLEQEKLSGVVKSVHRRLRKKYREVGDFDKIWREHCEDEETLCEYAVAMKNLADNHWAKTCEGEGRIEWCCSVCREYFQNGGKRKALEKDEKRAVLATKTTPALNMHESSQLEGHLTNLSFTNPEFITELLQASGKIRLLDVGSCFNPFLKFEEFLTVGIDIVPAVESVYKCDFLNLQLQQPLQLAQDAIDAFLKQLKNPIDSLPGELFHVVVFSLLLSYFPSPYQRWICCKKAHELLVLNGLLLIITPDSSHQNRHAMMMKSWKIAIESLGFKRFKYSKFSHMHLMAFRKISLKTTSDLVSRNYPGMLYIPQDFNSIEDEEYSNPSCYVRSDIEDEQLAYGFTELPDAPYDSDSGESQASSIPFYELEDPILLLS
UniProt O14503, whole entry, looked up: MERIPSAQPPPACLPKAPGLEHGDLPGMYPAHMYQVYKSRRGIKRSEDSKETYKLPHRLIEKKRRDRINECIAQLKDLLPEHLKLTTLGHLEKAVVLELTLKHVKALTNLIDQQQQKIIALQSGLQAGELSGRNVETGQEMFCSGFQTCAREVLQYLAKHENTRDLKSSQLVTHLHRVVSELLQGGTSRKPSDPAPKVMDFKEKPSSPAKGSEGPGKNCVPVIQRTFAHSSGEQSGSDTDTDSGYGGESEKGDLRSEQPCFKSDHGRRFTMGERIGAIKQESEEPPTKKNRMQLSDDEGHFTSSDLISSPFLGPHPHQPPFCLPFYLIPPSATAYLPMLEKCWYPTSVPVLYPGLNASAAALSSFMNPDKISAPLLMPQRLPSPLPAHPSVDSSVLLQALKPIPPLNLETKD
UniProt Q9BX70: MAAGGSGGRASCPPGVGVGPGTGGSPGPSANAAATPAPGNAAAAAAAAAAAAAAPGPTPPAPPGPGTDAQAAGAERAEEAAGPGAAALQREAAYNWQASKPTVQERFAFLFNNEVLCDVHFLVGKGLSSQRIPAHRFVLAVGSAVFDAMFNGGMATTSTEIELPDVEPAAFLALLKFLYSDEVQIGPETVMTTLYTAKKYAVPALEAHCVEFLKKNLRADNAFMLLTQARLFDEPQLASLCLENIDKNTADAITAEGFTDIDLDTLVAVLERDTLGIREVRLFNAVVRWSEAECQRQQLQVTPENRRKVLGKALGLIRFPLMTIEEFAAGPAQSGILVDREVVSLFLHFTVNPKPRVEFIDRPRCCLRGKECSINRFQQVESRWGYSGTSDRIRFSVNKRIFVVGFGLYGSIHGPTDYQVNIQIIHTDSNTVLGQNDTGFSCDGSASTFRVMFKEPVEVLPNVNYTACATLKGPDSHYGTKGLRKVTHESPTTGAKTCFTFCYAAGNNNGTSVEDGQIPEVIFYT

[1] = compound: COC(=O)[C@H](CCSC)NC(=O)C1=C(C=C(C=C1)NC[C@H](CS)N)C2=CC=CC=C2
Method in brief: as §1

Tubastatin A = compound: CN1CCc2c(c3ccccc3n2Cc2ccc(C(=O)NO)cc2)C1 [Tubastatin A]
Method in brief: as §1

[2] = compound: CNC(=O)C1=CC=CC=C1NC2=NC(=NC=C2Cl)NC3=C(C=C(C=C3)N4CCOCC4)OC
Method in brief: as §1

defactinib = compound: CNC(=O)c1ccc(Nc2ncc(C(F)(F)F)c(NCc3nccnc3N(C)S(C)(=O)=O)n2)cc1 [defactinib]
Method in brief: as §1

alvocidib = compound: CN1CC[C@H](c2c(O)cc(O)c3c(=O)cc(-c4ccccc4Cl)oc23)[C@H](O)C1 [alvocidib]
Method in brief: as §1

alisertib = compound: COc1cc(Nc2ncc3c(n2)-c2ccc(Cl)cc2C(c2c(F)cccc2OC)=NC3)ccc1C(=O)O [alisertib]
Method in brief: as §1

gefitinib = compound: COc1cc2ncnc(Nc3ccc(F)c(Cl)c3)c2cc1OCCCN1CCOCC1 [gefitinib]
Method in brief: as §1

[3] = compound: COc1cc2nc(-c3cc(F)ccc3O)nc(N[C@@H]3CNC[C@H]3C(C)(C)O)c2cc1OC
Method in brief: as §1

[4] = compound: CNc1nc(-c2ccc3c(N)n[nH]c3c2)cc(N2C[C@@H](C(=O)NC3CCCCC3)CC[C@H]2C)n1
Method in brief: as §1

Measured: log2 fold change

BRF2 (UniProt Q9HAW0)
inactive: encorafenib 0.4 | [1] -0.075

BNIP3L (UniProt O60238)
inactive: encorafenib -0.127 | [1] 0.105

BMP1 (UniProt P13497)
inactive: Tubastatin A 0.12

BAG6 (UniProt F6WML8)
inactive: Tubastatin A -0.077 | [2] -0.203 | defactinib 0.119 | encorafenib -0.136 | [1] 0.018

BRAF, A0A2R8Y8E0
inactive: defactinib -0.029 | encorafenib 1.3 | [1] 0.076

BPTF (UniProt F5GXF5)
inactive: Tubastatin A 0.089 | [2] 0.076

BCL2 (UniProt P10415)
inactive: Tubastatin A -0.067

BPIFA2 (UniProt Q96DR5)
inactive: alvocidib -0.074 | [2] -0.032 | encorafenib 0.275 | [1] 0.026 | alisertib 0.291 | gefitinib -0.296

BEX2 isoform 2 (UniProt Q9BXY8)
inactive: alvocidib -0.001 | defactinib -0.097 | [3] 0.012

BDH2 (UniProt Q9BUT1)
inactive: Tubastatin A 0.065 | [2] 0 | [4] -0.249 | encorafenib -0.047 | [1] 0.068 | alisertib 0.083 | [3] -0.047 | gefitinib 0.074

BMT2 (UniProt Q1RMZ1)
inactive: alvocidib -0.004 | alisertib 0.025 | gefitinib -0.27

BHLHE40 (UniProt O14503)
inactive: Tubastatin A -0.229 | [2] -0.04

BTBD2 (UniProt Q9BX70)
inactive: alvocidib -0.342 | [2] 0.102 | encorafenib 0.056 | [1] -0.013

BPNT1 (UniProt A6NF51)
inactive: Tubastatin A -0.084 | [2] 0.109 | defactinib 0.006 | [4] 0.068 | encorafenib 0.245 | [1] 0.009

From the supplement of paper PMC10849652
